Measured values: PubChem BioAssay AID270 (DTP/NCI, 2004)
The list shows only some results of the screen, not a fair sample: it is rich in T/C values a quarter to a half above the control, in often repeated tests (any T/C) and in doses without a T/C. Further doses and runs are listed elsewhere. T/C gives the treated animals as a percentage of the vehicle group. Schedule codes are those of the source, read here as Q, the interval in days (D) or hours (H), X, the number of doses. Some entries give survivors of the animals treated and no T/C: the source files T/C as zero there, which appears to mark a toxic dose or a test without result, not a measured value. Some doses without a T/C left all or most animals alive at the check, yet need not have been tolerated: survival well below the control is almost never listed, so the zero probably covers shortened survival too. Survivors were counted at the toxicity check, usually on the fifth day, unless a day is given; later deaths do not show. Some entries hold several experiments; the results are listed from low to high. For survival time, this PubChem deposit counts one and a half times the control or more as active, and values a quarter to a half above the control carry no call in these data; other NCI protocols may use other cut-offs. Some T/C values are followed by the survivors on the day toxicity was checked, most often the fifth; without a count, all were alive then.

System: BDF1 mice, s.c. Lewis lung carcinoma, T/C %
Assay: NCI In Vivo Anticancer Drug Screen. Data for tumor model Lewis Lung Carcinoma (subcutaneous) in B6D2F1 (BDF1) mice
Outline: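 Antitumor effect in vivo is scored from survival or tumor burden, reported as treated relative to vehicle controls.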

[1] = T/C endpoint: median survival time, dose: 25.0 mg/kg/injection, schedule: Q01DX001 (ip), vehicle: saline, higher T/C = longer survival
[2] = T/C endpoint: median survival time, dose: 6.0 mg/kg/injection, schedule: Q01DX009 (ip), vehicle: saline with Tween-80, higher T/C = longer survival

N[C@@H](Cc1ccc(N(CCCl)CCCl)cc1)C(=O)O
T/C (T/C endpoint: median survival time, dose: 0.16 mg/kg/injection, schedule: Q01DX009 (ip), vehicle: saline, higher T/C = longer survival): 130 % of control | T/C (T/C endpoint: median survival time, dose: 0.62 mg/kg/injection, schedule: Q01DX009 (ip), vehicle: saline, higher T/C = longer survival): 125 % of control | T/C (T/C endpoint: median survival time, dose: 1.0 mg/kg/injection, schedule: Q01DX009 (ip), vehicle: saline, higher T/C = longer survival): 140 % of control | T/C (T/C endpoint: median survival time, dose: 1.0 mg/kg/injection, schedule: Q04DX003 (ip), vehicle: saline, higher T/C = longer survival): 125 % of control | survivor count (T/C endpoint: median survival time, dose: 1.25 mg/kg/injection, schedule: Q01DX001 (ip), vehicle: water, higher T/C = longer survival): 10 of 10 | T/C (T/C endpoint: median survival time, dose: 2.0 mg/kg/injection, schedule: Q04DX003 (ip), vehicle: saline, higher T/C = longer survival): 137 % of control | T/C (T/C endpoint: median survival time, dose: 3.24 mg/kg/injection, schedule: Q01DX001 (ip), vehicle: saline, evaluated on day 6, higher T/C = longer survival): 83, 108, 120 % of control | T/C (T/C endpoint: median survival time, dose: 3.24 mg/kg/injection, schedule: Q01DX001 (ip), vehicle: saline, evaluated on day 50, higher T/C = longer survival): 77 % of control | T/C (T/C endpoint: median survival time, dose: 3.24 mg/kg/injection, schedule: Q01DX001 (ip), vehicle: saline, evaluated on day 100, higher T/C = longer survival): 111 % of control | survivor count (T/C endpoint: median survival time, dose: 4.0 mg/kg/injection, schedule: Q01DX009 (ip), vehicle: saline with Tween-80, higher T/C = longer survival): 10 of 10 | survivor count (T/C endpoint: median survival time, dose: 5.0 mg/kg/injection, schedule: Q01DX001 (ip), vehicle: saline, higher T/C = longer survival): 10 of 10 | T/C (T/C endpoint: median survival time, dose: 5.4 mg/kg/injection, schedule: Q01DX001 (ip), vehicle: saline, evaluated on day 6, higher T/C = longer survival): 104, 109, 120 % of control | T/C (T/C endpoint: median survival time, dose: 5.4 mg/kg/injection, schedule: Q01DX001 (ip), vehicle: saline, evaluated on day 50, higher T/C = longer survival): 102 % of control | T/C (T/C endpoint: median survival time, dose: 5.4 mg/kg/injection, schedule: Q01DX001 (ip), vehicle: saline, evaluated on day 100, higher T/C = longer survival): 111 % of control | survivor count (T/C endpoint: median survival time, dose: 6.0 mg/kg/injection, schedule: Q01DX009 (ip), vehicle: saline, higher T/C = longer survival): 10 of 10 | survivor count (T/C endpoint: median survival time, dose: 8.0 mg/kg/injection, schedule: Q01DX009 (ip), vehicle: Klucel (hydroxypropylcellulose) (HPC), higher T/C = longer survival): 10 of 10 | survivor count (T/C endpoint: median survival time, dose: 8.0 mg/kg/injection, schedule: Q01DX009 (ip), vehicle: saline with Tween-80, higher T/C = longer survival): 10 of 10 | survivor count (T/C endpoint: median survival time, dose: 8.0 mg/kg/injection, schedule: Q01DX009 (ip), vehicle: saline, higher T/C = longer survival): 10 of 10 | T/C (T/C endpoint: median survival time, dose: 9.0 mg/kg/injection, schedule: Q01DX001 (ip), vehicle: saline, evaluated on day 6, higher T/C = longer survival): 90, 112, 138 % of control | T/C (T/C endpoint: median survival time, dose: 9.0 mg/kg/injection, schedule: Q01DX001 (ip), vehicle: saline, evaluated on day 50, higher T/C = longer survival): 88 % of control [9 of 10 alive on day 50] | T/C (T/C endpoint: median survival time, dose: 9.0 mg/kg/injection, schedule: Q01DX001 (ip), vehicle: saline, evaluated on day 100, higher T/C = longer survival): 136 % of control | T/C (T/C endpoint: median survival time, dose: 15.0 mg/kg/injection, schedule: Q01DX001 (ip), vehicle: saline, evaluated on day 6, higher T/C = longer survival): 94, 115, 123 % of control | T/C (T/C endpoint: median survival time, dose: 15.0 mg/kg/injection, schedule: Q01DX001 (ip), vehicle: saline, evaluated on day 50, higher T/C = longer survival): 113 % of control | T/C (T/C endpoint: median survival time, dose: 15.0 mg/kg/injection, schedule: Q01DX001 (ip), vehicle: saline, evaluated on day 100, higher T/C = longer survival): 116 % of control | survivor count (T/C endpoint: median survival time, dose: 16.0 mg/kg/injection, schedule: Q01DX001 (ip), vehicle: saline, higher T/C = longer survival): 8 of 10 | survivor count (T/C endpoint: median survival time, dose: 16.0 mg/kg/injection, schedule: Q04DX003 (ip), vehicle: saline, higher T/C = longer survival): 10 of 10 | survivor count (T/C endpoint: median survival time, dose: 20.0 mg/kg/injection, schedule: Q01DX001 (ip), vehicle: saline, higher T/C = longer survival): 7 of 10 | survivor count (T/C endpoint: median survival time, dose: 20.0 mg/kg/injection, schedule: Q01DX001 (ip), vehicle: water, higher T/C = longer survival): 7 of 10 | T/C [1]: 26 [8 of 9 alive], 30, 37 % of control | survivor count [1]: 2 of 10 on day 50 and 2 of 8 on day 100 | survivor count (T/C endpoint: median survival time, dose: 30.0 mg/kg/injection, schedule: Q01DX001 (ip), vehicle: water, higher T/C = longer survival): 6 of 10 | survivor count (T/C endpoint: median survival time, dose: 32.0 mg/kg/injection, schedule: Q01DX001 (ip), vehicle: saline, higher T/C = longer survival): 4 of 10 | survivor count (T/C endpoint: median tumor weight (est.), dose: 19.0 mg/kg/injection, schedule: Q01DX001 (ip), vehicle: carboxymethylcellulose (CMC), higher T/C = larger tumour): 2 of 10 on day 19

CCOP(=O)(N1CC1(C)C)N1CC1(C)C (stereo unspecified)
survivor count (T/C endpoint: median survival time, dose: 120.0 mg/kg/injection, schedule: Q01DX009 (ip), vehicle: saline, higher T/C = longer survival): 10 of 10

O=S(=O)(c1ccc(NC(=S)N/N=C/c2ccccc2O)cc1)N1CCCCC1
survivor count (T/C endpoint: median survival time, dose: 100.0 mg/kg/injection, schedule: Q01DX009 (ip), vehicle: olive oil, sesame oil, peanut oil, higher T/C = longer survival): 10 of 10 | survivor count (T/C endpoint: median survival time, dose: 400.0 mg/kg/injection, schedule: Q01DX009 (ip), vehicle: olive oil, sesame oil, peanut oil, higher T/C = longer survival): 10 of 10

Cc1ccc(Oc2ccc3cc[n+](C)cc3c2)cc1
survivor count (T/C endpoint: median survival time, dose: 25.0 mg/kg/injection, schedule: Q01DX009 (ip), vehicle: saline, higher T/C = longer survival): 0 of 10

CC(=O)OC(C)(C)/C=C/C(=O)[C@](C)(O)[C@H]1[C@H](O)C[C@@]2(C)[C@@H]3CC=C4[C@@H](CC[C@H](O)C4(C)C)[C@]3(CO)C(=O)C[C@]12C
survivor count (T/C endpoint: mean tumor weight, dose: 0.86 mg/kg/injection, schedule: Q01DX011 (ip), vehicle: saline, higher T/C = larger tumour): 3 of 6 | survivor count (T/C endpoint: mean tumor weight, dose: 1.3 mg/kg/injection, schedule: Q01DX011 (ip), vehicle: saline, higher T/C = larger tumour): 2 of 6 | survivor count (T/C endpoint: mean tumor weight, dose: 2.0 mg/kg/injection, schedule: Q01DX011 (ip), vehicle: saline, higher T/C = larger tumour): 0 of 6

Cc1cccc(NC(=O)N(CCCl)N=O)c1
T/C (T/C endpoint: median survival time, dose: 3.0 mg/kg/injection, schedule: Q01DX009 (ip), vehicle: saline with Tween-80, higher T/C = longer survival): 142 % of control | T/C [2]: 143 % of control | survivor count [2]: 10 of 10 | survivor count (T/C endpoint: median survival time, dose: 12.0 mg/kg/injection, schedule: Q01DX009 (ip), vehicle: saline with Tween-80, higher T/C = longer survival): 9 of 10

CCCCS(=O)CC(CO)NC(=O)/C=C/c1c(C)[nH]c(=O)[nH]c1=O (stereo unspecified)
T/C (T/C endpoint: median survival time, dose: 1.25 mg/kg/injection, schedule: Q01DX009 (ip), vehicle: water, higher T/C = longer survival): 128 % of control | survivor count (T/C endpoint: median survival time, dose: 10.0 mg/kg/injection, schedule: Q01DX009 (ip), vehicle: water, higher T/C = longer survival): 8 of 10

CC1=CC(=O)N(NC(N)=O)C1=O
survivor count (T/C endpoint: median survival time, dose: 100.0 mg/kg/injection, schedule: Q01DX009 (ip), vehicle: saline, higher T/C = longer survival): 7 of 10

c1ccc2ncccc2c1
survivor count (T/C endpoint: mean tumor weight, dose: 100.0 mg/kg/injection, schedule: Q01DX011 (ip), vehicle: saline, higher T/C = larger tumour): 4 of 7 | survivor count (T/C endpoint: mean tumor weight, dose: 200.0 mg/kg/injection, schedule: Q01DX011 (ip), vehicle: saline, higher T/C = larger tumour): 0 of 7

OCCc1ccccc1
survivor count (T/C endpoint: mean tumor weight, dose: 500.0 mg/kg/injection, schedule: Q01DX011 (ip), vehicle: saline, higher T/C = larger tumour): 0 of 6

c1ccc(CSc2ncnc3nc[nH]c23)nc1
survivor count (T/C endpoint: mean tumor weight, dose: 200.0 mg/kg/injection, schedule: Q01DX011 (ip), vehicle: other, higher T/C = larger tumour): 0 of 6

CC[n+]1ccc(Nc2ccc(/C=C/c3ccc4cc(Nc5cc[n+](CC)cc5)ccc4[n+]3CC)cc2)cc1
survivor count (T/C endpoint: median survival time, dose: 20.0 mg/kg/injection, schedule: Q01DX009 (ip), vehicle: saline, higher T/C = longer survival): 1 of 10

O=CNCCO
T/C (T/C endpoint: mean tumor weight, dose: 500.0 mg/kg/injection, schedule: Q01DX011 (ip), vehicle: saline, evaluated on day 12, higher T/C = larger tumour): 139 % of control | survivor count (T/C endpoint: mean tumor weight, dose: 1000.0 mg/kg/injection, schedule: Q01DX011 (ip), vehicle: saline, higher T/C = larger tumour): 0 of 6

CCOC(=O)C(=CNc1cccc(Cl)c1)C(=O)OCC
T/C (T/C endpoint: mean tumor weight, dose: 333.0 mg/kg/injection, schedule: Q01DX011 (ip), vehicle: other, evaluated on day 12, higher T/C = larger tumour): 147 % of control | survivor count (T/C endpoint: mean tumor weight, dose: 500.0 mg/kg/injection, schedule: Q01DX011 (ip), vehicle: other, higher T/C = larger tumour): 2 of 6

CCc1ccc(NC(=O)N(CCCl)N=O)cc1
survivor count (T/C endpoint: median survival time, dose: 3.8 mg/kg/injection, schedule: Q01DX009 (ip), vehicle: Klucel (hydroxypropylcellulose) (HPC), higher T/C = longer survival): 10 of 10 | survivor count (T/C endpoint: median survival time, dose: 30.0 mg/kg/injection, schedule: Q01DX009 (ip), vehicle: Klucel (hydroxypropylcellulose) (HPC), higher T/C = longer survival): 10 of 10

CC[C@@]1(O)C(=O)OCc2c1cc1n(c2=O)Cc2cc3c(OC)cccc3nc2-1
T/C (T/C endpoint: median survival time, dose: 0.06 mg/kg/injection, schedule: Q01DX009 (ip), vehicle: Klucel (hydroxypropylcellulose) (HPC), higher T/C = longer survival): 126 % of control

CO/[N+]([O-])=C\C(=O)N/C=C/C(=O)O
survivor count (T/C endpoint: mean tumor weight, dose: 50.0 mg/kg/injection, schedule: Q01DX011 (ip), vehicle: carboxymethylcellulose (CMC), higher T/C = larger tumour): 0 of 6 | survivor count (T/C endpoint: mean tumor weight, dose: 75.0 mg/kg/injection, schedule: Q01DX011 (ip), vehicle: carboxymethylcellulose (CMC), higher T/C = larger tumour): 0 of 6
